Data from PubChem BioAssay AID300 (DTP/NCI, 2004).
The list shows only some results of the screen, not a fair sample: it covers a few groups of compounds. Not every dose and run of a compound is shown. T/C: endpoint of the treated group in % of that of the vehicle group. For survival time, the PubChem record calls one and a half times the control and up active, and a quarter to a half above the control has no call in these data; cut-offs in other NCI protocols can differ. Some entries show no survivor count and are marked so; the dose need not have been tolerated. Schedule codes are those of the source, taken here to give the interval after Q, in days (D) or hours (H), and the number of doses after X.

Test system: Madison 109 lung carcinoma i.m., mice, median survival
Test: NCI In Vivo Anticancer Drug Screen. Data for tumor model Madison 109 Lung Carcinoma (intramuscular) in unknown mice
Conditions: T/C endpoint: median survival time, schedule: Q01DX005 (ip), vehicle: saline, higher T/C = longer survival
Method: The antitumor activity of compounds was measured in mice bearing transplantable tumors. Survival or tumor size were measured and the results are expressed as the measurement made in the treated group (T) divided by the measurement made in the vehicle treated control group (C). The tumor model used in this assay is Madison 109 Lung Carcinoma (intramuscular) in unknown mice

How did the T/C (dose: 0.13 mg/kg/injection) turn out when `CN(CCCl)CCCl` was run?
The T/C was 100 % of control [survivor count not shown].

What about the T/C (dose: 0.36 mg/kg/injection) of the same compound?
Its T/C is 92 % of control [survivor count not shown].

What about the T/C (dose: 0.6 mg/kg/injection) of the same compound?
The T/C was 97 % of control [survivor count not shown].
